Source: patent publication US20190338038A1 (CELLERANT THERAPEUTICS, published 2019)

B1: anti-IL1-RAP antibody clone 42.1D3 (antibody, V domains shown)
VH: QIQLVQSGPELKKPGETVNISCKASGYTFTDFSMHWVKQAPGKGLQWMGWINTETGEPTYADDFEARFAFSLATSANTAYLKINNLKNEDTATYFCARFFLHFDYWGQGTTLTVSS
VL: DIVLTQSPATLSVTPGDSVSLSCRASQSINNDLHWYQQKSHESPRLLIKYASQSISGIPSRFSGSGSGTDFTLRINSVETEDFRMYFCQQSNNWPLTFGAGTKLEVK
notes: Mouse monoclonal antibody
B2: 42.3G6 (antibody, V domains shown)
VH: QIQLVQSGPELKKPGETVKISCKASGYTFTDYSMHWVKQAPEKGLKWMGWINTETGEPTYADDFKGRFAFSLETSASTAYLQINNLKNEDTATYFCARGSFPWFTYWGQGTLVTVSA
VL: DIVMTQAAFSNPVTLGTSASISCRSSKSLLHSNGITYLYWYLQKPGQSPQLLIYQMSNLASGVPDRFSSSGSGTDFTLRISRVEAEDVGVYYCAQNLELPFTFGSGTKLEIK
notes: also called anti-IL1-RAP antibody clone 42.3G6
B3: anti-IL1-RAP antibody clone 46.1D2 (antibody, V domains shown)
VH: QVQLQQSGPELVKPGASVKISCKASGYGFSSSWMNWVKQRPGKGLEWIGRIYPGDGNTNYYGEFKGKATLTADKSSSTAYMQLNSLTSEDSAVYFCARNDGYPAWFTYWGQGTLVTVSA
VL: DIQMTQTTSSLSASLGDRVTISCSASQGISNYLNWYQQKPDGSVKLLIYYTSTLHSGVPSRFSGSGSGTDYSLTISNLEPEDIATYYCQQYSYLPWTFGGGTKLEIK
notes: Mouse monoclonal antibody
B4: 46.8G1 (antibody, V domains shown)
VH: QVQLQQSGPELVKPGASVKISCTASGYAFSTSWMNWVKQRPGKGLEWIGRIYPGDGDSNYNGKFKGKATLTADKSSSTAYMQLSSLTSEDSAVYFCARRDYYGFFDVWGAGTTVTVSS
VL: DIQMTQSPASLSVSVGETVTITCRASENIYSNLVWYQQKQGKSPQLLVYAATNLADGVPSRFSGSGSDTQYSLKINSLQSEDFGSYYCLHFWGPPYMYTFGGGTNLEMKR
notes: also called anti-IL1-RAP antibody clone 46.8G1
B5: anti-IL1-RAP antibody clone 50.3G7 (antibody, V domains shown)
VH: QIQLVQSGPELKKPGETVKISCKASGYTFTNYGMHWVKQSPGEGLKWMGWINTYTGEPTYADDFKGRFGFSLETSASSAYLQINDLKNEDMATYFCARYYGNFDYWGQGTTLTVSS
VL: DIVLTQSPATLSVTPGDSVSLSCRASQSISNNLHWYQQKSHESPRLLIKYASQSISGIPSRFSGSGSGTDFTLSINSVETEDFGVYFCQQSHNWPHTFGGGTKLEIKR
notes: Mouse monoclonal antibody
B6: anti-IL1-RAP antibody clone 50.6C12 (antibody, V domains shown)
VH: EVQLQQSGPELVKPGDSVKMSCKASGYTFTDYYMDWVKQSHGKSLEWIGYIYPHNGGTTYNQKFKGKATLTVDKSSSTAYMELHSLTSEDSAVYYCARSPFNYKDPMDWWGQGTSVTVSS
VL: DIQMTQSPASLSASVGETVTITCRASGNIHNYLAWYQQKQGKSPHLLVYNAETLADGVPSRFSGSGSGTQYSLKINSLQPEDFGTYYCQHFWSTPWTFGGGTKLEIK
notes: Mouse monoclonal antibody
B7: anti-IL1-RAP antibody clone 54.8H8 (antibody, V domains shown)
VH: EVQLVESGGGLVKPGGSLKLSCAASGFSFSSYGMSWVRQSPEKRLEWVAEITSGGSHTYYPDTVTGRFTISRDNAKNTLYLEMSSLRSEDTAMYYCSRSYGNYVMDYWGQGTSVTVSS
VL: QIVLTQSPAIMSASPGEKVTMTCSASSSVIYIYWFQQKPGSSPRLLIYDTSNLASGVPLRFSGSGSGTSYSLTISRMETEDVSTYYCQQWNSYPPTFGGGTKLEIK
notes: Mouse monoclonal antibody
B8: anti-IL1-RAP antibody clone 54.9D7 (antibody, V domains shown)
VH: HVQLQQSGPELVRPGASVKLSCKASGYIFITYWMNWVKQRPGQGLEWVGQIFPASGTTYYNELFEGKATLTVDTSSNTAYMHLTSLTSEDSAVYYCARTDFYRYDGGYALDYWGQGTSLTVSS
VL: DIVLTQSPISLAVFLGQRATISCRASQSVSTSGYSSMHWYQQKAGQPPKLLIKYASDLESGVPVRFSGSGSGTDFILNIHPVEVEDIATYYCHHSWGIPMYTFGGGTKLEIKR
notes: Mouse monoclonal antibody from a hybridoma
B9: anti-IL1-RAP antibody clone 54.9E9 (antibody, V domains shown)
VH: QIQLVQSGPELKKPGETVKISCKASSYTFTDYSMHWVKQAPGKGLKWMGWINTETGEPRYADDFKGRFAFSLETSASTAYLQINNLKNEDTATYFCARFLLHFDYWGQGTILTVSS
VL: QIVLTQSPAIMSASPGEKVTMTCSASSSVSYMHWYQQKTGTSPKRLIYDTSKLASGVPARFSGSGSGTSYSLTISSMEAEDAATYYCHQRSYYPLTFGAGAKLELK
notes: Mouse monoclonal antibody
B10: anti-IL1-RAP antibody clone 54.15B5 (antibody, V domains shown)
VH: KWSWWSLGGGLAKPGGSLKLSCTASGFTFTSYVMSWVRQSPEKRLEWVAEISRGGSHTYYSDTVTGRFTISRDNANNALYLEMSSVRSADTAMYFCTRAYGNSEMDFWGQGTSVTVSS
VL: QIVLTQSPAIMSASPGEKVTMTCSASSSISYIHWYRQKPGTSPKRWIYDTSNLASGVPARFSGSGSGTSYSLTIINMEAEDAATYYCHQRTYYPLTFGGGTRLELK
notes: Mouse monoclonal antibody
B11: anti-IL1-RAP antibody clone 56.12G6 (antibody, V domains shown)
VH: RSNYSSLGAELVKPGASVTLSCEASGYTFTSYWIHWVKQRPGQGLEWIGEINPSHGHTTYNEKFKNKATLTVDKSSSTAYMQVSSLTSEDSAVYYCTRHYGSYYFDLWGQGTTLTVSS
VL: QIVLTQSPAIMSAFPGEKVTMTCRASSSVSYMHWYRQKSGTFPKRWIYDTSKLASGVPARFSGSGSGTSYSLTISSMEAEDAATYYCQQWSTNPITFGAGTKLELK
notes: Mouse monoclonal antibody

Assays:
mIg2 [1] = assay: FACS (GeoMean) on 293 cells transiently transfected with the chimeric receptor
mIg3 [2] = assay: FACS (GeoMean) on 293 cells transiently transfected with the chimeric receptor; antibody concentration not given
mIg3 [3] = assay: FACS (GeoMean) on 293 cells transiently transfected with the chimeric receptor
mIg2 [4] = assay: FACS (GeoMean) on 293 cells transiently transfected with the chimeric receptor; antibody concentration not given

Binder	binding (mIg2 [1])	binding (mIg3 [2])	binding (mIg3 [3])	binding (mIg2 [4])
B1	no binding (tested: not given)	binds	–	–
B2	no binding (tested: not given)	binds	–	–
B3	no binding (tested: not given)	binds	–	–
B4	–	–	no binding (tested: not given)	binds
B5	no binding (tested: not given)	binds	–	–
B6	–	–	no binding (tested: not given)	binds
B7	–	–	no binding (tested: not given)	binds
B8	–	–	no binding (tested: not given)	binds
B9	–	–	no binding (tested: not given)	binds
B10	–	–	no binding (tested: not given)	binds
B11	–	–	no binding (tested: not given)	binds

Results are given in words; binding and its absence hold for the method and conditions named. For some of these results: Binding calls can cover weak binding; strength is not graded here.
